The text below walks through data of the supplement of paper PMC7752906.

Structures can show the parent of a compound that is named as a salt. Some of the results follow. Repeats in this data set agree poorly, so a single value says little.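 About 40 Schistosoma mansoni schistosomula per well were imaged over time in bright field and compared with 0.1% DMSO wells. A drug counts as a hit if its Mahalanobis distance reaches 2.47 or more, three standard deviations above the DMSO control mean. Degeneracy is the fraction of worms scored opaque.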 Square brackets hold non-standard residues; d marks the D form. Peptide text beside a SMILES is read from it. pGlu = O=C1CC[C@@H](C(=O)O)N1; Thz = O=C(O)[C@@H]1CSCN1

The test relates to Schistosoma mansoni schistosomula. Description: Mahalanobis distance of static-rate-frequency phenotype descriptors from DMSO controls (dimensionless); higher = stronger phenotypic change versus DMSO. The settings on record: 10 µM; 72 h.
`C[C@H](CS)C(=O)N1CCC[C@H]1C(=O)O` [Captopril]: the Mahalanobis distance was active: 3.02.
Regarding `COc1cc(NS(=O)(=O)c2ccc(N)cc2)ncn1` [Sulfamonomethoxine], the Mahalanobis distance was inactive: 1.78.
`Cc1cc(C)nc(NS(=O)(=O)c2ccc(N)cc2)n1` [Sulfamethazine]: the Mahalanobis distance is inactive: 1.39.
For `CN(C(=O)CN(CCO)CC(=O)N(C)C(C)(C)Cc1ccccc1)C(C)(C)Cc1ccccc1` [oxethazaine], the Mahalanobis distance is inactive: 1.89.
Consider `CN1CCN2c3ncccc3Cc3ccccc3C2C1` (centres undefined) [Mirtazapine], for which the Mahalanobis distance was active: 3.09.
Then `CCCCCCNC(=O)n1cc(F)c(=O)[nH]c1=O` [Carmofur], with active: 3.78; and `CCCOc1ccccc1-c1nc2[nH]nnc2c(=O)[nH]1` [Zaprinast], with inactive: 1.66.
Consider `Nc1nc(=O)n([C@@H]2CS[C@H](CO)O2)cc1F` [Emtricitabine], for which the Mahalanobis distance is inactive: 1.49.
For `COc1ccc(Cl)cc1C(=O)NCCc1ccc(S(=O)(=O)NC(=O)NC2CCCCC2)cc1` [Glibenclamide, Glyburide], the Mahalanobis distance is inactive: 1.77.
Turning to `CCN(CC)CCOCCOC(=O)C1(c2ccccc2)CCCC1` [Carbetapentane Citrate], the Mahalanobis distance was inactive: 2.47.
Consider `C[C@@H]1C[C@H]2[C@@H]3CCC4=CC(=O)C=C[C@]4(C)[C@@]3(F)[C@@H](O)C[C@]2(C)[C@H]1C(=O)CO` [Desoximetasone], for which the Mahalanobis distance was inactive: 1.83.
Consider `CC#CCn1c(N2CCC[C@@H](N)C2)nc2c1c(=O)n(Cc1nc(C)c3ccccc3n1)c(=O)n2C` [Linagliptin], for which the Mahalanobis distance was inactive: 1.22.
Take `O=P(O)(O)C(O)(Cn1ccnc1)P(=O)(O)O` [Zoledronic Acid]: the Mahalanobis distance was inactive: 1.98.
As for `CC(C)(CO)[C@@H](O)C(=O)NCCC(=O)O` [Pantothenic Acid], the Mahalanobis distance was inactive: 1.59.
With `Cc1cc(C(C)(C)C)cc(C)c1CC1=NCCN1` [Xylometazoline], the Mahalanobis distance is active: 4.88.
For the compound `CCN(CCCCOC(=O)c1ccc(OC)c(OC)c1)C(C)Cc1ccc(OC)cc1` (centres undefined) [Mebeverine], the Mahalanobis distance was inactive: 2.07.
As for `COc1cc2nc(N3CCN(C(=O)C4COc5ccccc5O4)CC3)nc(N)c2cc1OC` (centres undefined) [Doxazosin], the Mahalanobis distance was active: 3.45.
As for `CC(=O)Nc1ccc(OC(=O)c2ccccc2O)cc1` [Acetaminosalol], the Mahalanobis distance was inactive: 1.85.
As for `O=C(CCBr)N1CCN(C(=O)CCBr)CC1` [Pipobroman], the Mahalanobis distance was inactive: 1.7.
In the case of `CCCCC1C(=O)N(c2ccccc2)N(c2ccc(O)cc2)C1=O` (centres undefined) [Oxyphenbutazone] it was inactive: 1.4; in that of `CCOC(=O)/C=C(C)/C=C/C=C(C)/C=C/c1c(C)cc(OC)c(C)c1C` [Etretinate], inactive: 1.62; in that of `CCOC(=O)Nc1nc2ccccc2[nH]1` [Lobendazole], inactive: 1.76.
Then `O=C(O)c1ccc[n+]([O-])c1` [Oxiniacic Acid], with inactive: 1.56; and `NC[C@H]1O[C@H](O[C@H]2[C@H](O)[C@@H](O[C@H]3O[C@H](CO)[C@@H](O)[C@H](N)[C@H]3O)[C@H](N)C[C@@H]2N)[C@H](N)C[C@@H]1O` [Tobramycin], with inactive: 1.55; and `Cc1ccc(-c2cc(C(F)(F)F)nn2-c2ccc(S(N)(=O)=O)cc2)cc1` [Celecoxib], with active: 2.66.
As to `Nc1ccc(S(=O)(=O)Nc2nccs2)cc1` [Sulfathiazole], the Mahalanobis distance was inactive: 1.98.
In the case of `CNCC(O)c1ccc(O)c(O)c1` (centres undefined) [Racepinephrine] it was inactive: 1.3; in that of `O=C(O)C1=C(CSc2nnnn2CS(=O)(=O)O)CS[C@@H]2[C@H](NC(=O)[C@H](O)c3ccccc3)C(=O)N12` [Cefonicid Sodium], inactive: 1.5; in that of `CCCCCCOc1ccccc1C(N)=O` [Exalamide], inactive: 2.25.
Then `NC[C@H](O)c1ccc(O)c(O)c1` [Norepinephrine], with inactive: 2; and `O=C(CCCl)NCCc1ccccc1` [Fenaclon], with inactive: 2.03; and `CC(=O)Nc1c(I)cc(I)c(C(=O)O)c1I` [Acetriazoic Acid], with inactive: 1.3.
As for `Cc1cc2cc3c(C)cc(=O)oc3c(C)c2o1` [Trioxsalen], the Mahalanobis distance is inactive: 2.06.
As for `CC(=O)Nc1nnc(S(N)(=O)=O)s1` [Acetazolamide], the Mahalanobis distance was inactive: 1.89.
`CC(C)Oc1ccc2c(=O)c(-c3ccccc3)coc2c1` [Ipriflavone]: the Mahalanobis distance is active: 6.26.
In the case of `Clc1ccc2nsnc2c1NC1=NCCN1` [Tizanidine Hydrochloride], the Mahalanobis distance was inactive: 1.91.
Consider `CO/N=C(\C(=O)N[C@@H]1C(=O)N2C(C(=O)O)=C(COC(C)=O)CS[C@H]12)c1csc(N)n1` [Cefotaxime], for which the Mahalanobis distance was active: 4.78.
As to `CO/N=C(\C(=O)N[C@@H]1C(=O)N2C(C(=O)O)=C(COC(C)=O)CS[C@H]12)c1csc(N)n1` [Cefotaxime Sodium], the Mahalanobis distance is inactive: 1.74.
As for `COc1cc(CNC(=O)CCCC/C=C/C(C)C)ccc1O` [Capsaicin], the Mahalanobis distance is inactive: 1.68.
In the case of `O=C(NCCCN1CCOCC1)c1ccc(Cl)cc1` [Eprobemide], the Mahalanobis distance was active: 3.63.
In the case of `C[C@]12CC[C@@H]3c4ccc(O)cc4C[C@@H](CCCCCCCCC[S+]([O-])CCCC(F)(F)C(F)(F)F)[C@H]3[C@@H]1CC[C@@H]2O` (some centres undefined) [Fulvestrant], the Mahalanobis distance is active: 3.26.
For `COC(=O)[C@H](Cc1ccccc1)NC(=O)[C@@H](N)CC(=O)O` [Aspartame] (H-Asp-Phe-OMe), the Mahalanobis distance is inactive: 1.53.
On to `O=C1CC[C@@H](C(=O)N2CSC[C@H]2C(=O)O)N1` [Pidotimod] ([pGlu]-[Thz]-OH), for which the Mahalanobis distance is active: 2.64.
For the compound `Oc1c(Cl)cc(Cl)c2cccnc12` [chloroxine], the Mahalanobis distance was active: 2.5.
`c1ccc(-c2ccc(C(c3ccccc3)n3ccnc3)cc2)cc1` (centres undefined) [Bifonazole]: the Mahalanobis distance is active: 2.76.
On to `CCOc1nc2cccc(C(=O)O)c2n1Cc1ccc(-c2ccccc2-c2nnn[nH]2)cc1` [Candesartan], for which the Mahalanobis distance was inactive: 1.94.
Take `CC[C@H](C)[C@H](N)C(=O)O` [Isoleucine (l)]: the Mahalanobis distance is inactive: 1.97.
On to `C[C@H]1C[C@H]2[C@@H]3CCC4=CC(=O)C=C[C@]4(C)[C@@]3(F)[C@@H](O)C[C@]2(C)[C@@]1(O)C(=O)COP(=O)(O)O` [Betamethasone Sodium Phosphate], for which the Mahalanobis distance is inactive: 1.57.
Then `Nc1ncnc2c1ncn2[C@@H]1O[C@H](CO)[C@@H](O)[C@@H]1O` [Vidarabine], with active: 3.1; and `COC(=O)Nc1nc2cc(Sc3ccccc3)ccc2[nH]1` [Fenbendazole], with active: 2.86; and `CC(=O)N(CC(O)CO)c1c(I)c(C(=O)NCC(O)CO)c(I)c(C(=O)NCC(O)CO)c1I` (centres undefined) [Iohexol], with inactive: 2.19.
For `CC(=O)N(CC(O)CO)c1c(I)c(C(=O)NCCO)c(I)c(C(=O)NCC(O)CO)c1I` (centres undefined) [Ioxilan], the Mahalanobis distance was inactive: 2.37.
In the case of `CCCCCCCCCCCCCCCC(=O)OC[C@H](O)[C@H]1OC(=O)C(O)=C1O` [Ascorbyl Palmitate], the Mahalanobis distance was inactive: 2.14.
In the case of `CNCCc1ccccn1` [Betahistine] it was active: 2.9; in that of `CC=CC(=O)N(CC)c1ccccc1C` [Crotamiton], inactive: 1.42; in that of `CN(C)C(=N)NC(=N)N` [metformin], inactive: 1.4.
On to `CCCNC(=O)NS(=O)(=O)c1ccc(Cl)cc1` [Chlorpropamide], for which the Mahalanobis distance is inactive: 1.66.
`CC(=O)O[C@]1(C(C)=O)CC[C@H]2[C@@H]3C=C(Cl)C4=CC(=O)CC[C@]4(C)[C@H]3CC[C@@]21C` [Chlormadinone Acetate]: the Mahalanobis distance is active: 2.49.
On to `Clc1cccc(Cl)c1NC1=NCCN1` [Clonidine], for which the Mahalanobis distance is active: 2.79.
Regarding `CO[C@H]1/C=C/O[C@@]2(C)Oc3c(C)c(O)c4c(O)c(c5c(nc6cc(C)ccn65)c4c3C2=O)NC(=O)/C(C)=C\C=C\[C@H](C)[C@H](O)[C@@H](C)[C@@H](O)[C@@H](C)[C@H](OC(C)=O)[C@@H]1C` [Rifaximin], the Mahalanobis distance is inactive: 1.72.
Turning to `Cc1cc2nc3c(=O)[nH]c(=O)nc-3n(C[C@H](O)[C@H](O)[C@H](O)CO)c2cc1C` [riboflavin], the Mahalanobis distance is inactive: 2.14.
Regarding `O=C1NCC2(CCN(CCc3ccccc3)CC2)O1` [Fenspiride Hydrochloride], the Mahalanobis distance was inactive: 2.12.
Turning to `CN(C)CCOC(c1ccccc1)c1ccccc1.Cn1c(=O)c2[nH]c(Cl)nc2n(C)c1=O` [Dimenhydrinate], the Mahalanobis distance is inactive: 2.37.
On to `CC(=O)[C@@]1(O)CC[C@H]2[C@@H]3CCC4=CC(=O)CC[C@]4(C)[C@H]3CC[C@@]21C` [Hydroxyprogesterone], for which the Mahalanobis distance is inactive: 1.3.
In the case of `CCN(CC)C(=O)c1ccc(O)c(OC)c1` [Ethamivan] it was inactive: 1.45.
In the case of `O=C(c1ccc(F)cc1)C1CCN(CCn2c(=O)[nH]c3ccccc3c2=O)CC1` [Ketanserin Tartrate], the Mahalanobis distance is active: 2.57.
As for `C[C@H](C(=O)O)c1cccc(C(=O)c2ccccc2)c1` [Dexketoprofen], the Mahalanobis distance is inactive: 1.38.
Turning to `NCCS` [Cysteamine Hydrochloride], the Mahalanobis distance is active: 2.79.
Take `COCCOC(=O)C1=C(C)NC(C)=C(C(=O)OC(C)C)C1c1cccc([N+](=O)[O-])c1` (centres undefined) [Nimodipine]: the Mahalanobis distance was inactive: 1.68.
For the compound `CN1C(C(=O)Nc2ccccn2)=C(O)c2ccccc2S1(=O)=O` [Piroxicam], the Mahalanobis distance was inactive: 2.45.
In the case of `CC1(C)[C@@H](O)CC[C@]2(C)[C@H]3C(=O)C=C4[C@@H]5C[C@@](C)(C(=O)O)CC[C@]5(C)CC[C@@]4(C)[C@]3(C)CC[C@@H]12` [Enoxolone], the Mahalanobis distance was inactive: 1.82.
For the compound `O=C(O)/C=C/C(=O)O` [Fumaric Acid], the Mahalanobis distance is inactive: 1.56.
Turning to `O=C(O)C[C@H](O)C[C@H](O)/C=C/c1c(C2CC2)nc2ccccc2c1-c1ccc(F)cc1` [Pitavastatin Calcium], the Mahalanobis distance was active: 4.97.
Regarding `Cc1cc2c(OCC(CNC(C)(C)C)OC(=O)c3ccccc3)cccc2[nH]1` (centres undefined) [Bopindolol], the Mahalanobis distance is inactive: 2.41.
